Results taken from article PMC8510267.

Molecular target: FLAG-PABPC4 (not stated (human or pig cDNA cloned))
Test: co-IP

Binder | binding
myc-MARCH8 (enzyme, UniProt Q5T0T0 1-291) MSMPLHQISAIPSQDAISARVYRSKTKEKEREEQNEKTLGHFMSHSSNISKAGSPPSASAPAPVSSFSRTSITPSSQDICRICHCEGDDESPLITPCHCTGSLHFVHQACLQQWIKSSDTRCCELCKYEFIMETKLKPLRKWEKLQMTSSERRKIMCSVTFHVIAITCVVWSLYVLIDRTAEEIKQGQATGILEWPFWTKLVVVAIGFTGGLLFMYVQCKVYVQLWKRLKAYNRVIYVQNCPETSKKNIFEKSPLTEPNFENKHGYGICHSDTNSSCCTEPEDTGAEIIHV | binds
myc-NDP52 (protein, UniProt Q13137 1-446) MEETIKDPPTSAVLLDHCHFSQVIFNSVEKFYIPGGDVTCHYTFTQHFIPRRKDWIGIFRVGWKTTREYYTFMWVTLPIDLNNKSAKQQEVQFKAYYLPKDDEYYQFCYVDEDGVVRGASIPFQFRPENEEDILVVTTQGEVEEIEQHNKELCKENQELKDSCISLQKQNSDMQAELQKKQEELETLQSINKKLELKVKEQKDYWETELLQLKEQNQKMSSENEKMGIRVDQLQAQLSTQEKEMEKLVQGDQDKTEQLEQLKKENDHLFLSLTEQRKDQKKLEQTVEQMKQNETTAMKKQQELMDENFDLSKRLSENEIICNALQRQKERLEGENDLLKRENSRLLSYMGLDFNSLPYQVPTSDEGGARQNPGLAYGNPYSGIQESSSPSPLSIKKCPICKADDICDHTLEQQQMQPLCFNCPICDKIFPATEKQIFEDHVFCHSL | binds

These are yes or no findings as the source states them, for the method shown. In cells and extracts the contact can be indirect. Binding can be weak; no strength is given. Tags and fused reporters may be left off the sequences shown.
